# Experimental data: PubChem BioAssay AID686937 (Drosophila RNAi Screening Center, 2013)
# Assay: 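Knock-downs that reduce output of a secreted reporter enzyme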 (primary screen)
# System: Drosophila S2 cells expressing secreted horseradish peroxidase
# Knock-down reagent: long dsRNA against Drosophila genes
# Timing: about 5.5 days (5 days dsRNA, then 12 h reporter induction)
# Challenge: reporter expression induced after 5 days of dsRNA, read 12 h later; inducer not stated
# Measurement: 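After 5 days of dsRNA and 12 h of reporter induction, medium peroxidase read by chemiluminescence and scored as per-plate z-score; higher values mean more reporter released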
# Reading the numbers: z-score: higher = more reporter secreted into medium
# The screen tested about 23,000 reagents; below is a random part of those with a known target gene and a result. 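Reduced-secretion tags in replicate 1 do not always agree with the z-scores; no criterion for assigning the tags was given.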 A plus sign joins genes that one reagent is predicted to hit. Further read-outs or replicates are left out here. Not given: the amount of reagent.
target,DRSC id,"z-score, replicate 1","z-score, replicate 2","z-score, replicate 3","z-score, replicate 4"
CG33483,DRSC14019,0.52,0.42,,
FucTA,DRSC10733,0.23,0.11,,
NimC3,DRSC03556,-0.18,-0.27,,
NimC3,DRSC22528,0.82,0.56,,
CG30291,DRSC03842,-0.27,0.25,,
fh,DRSC18430,0.48,0.07,,
CG31871,DRSC02567,0.18,0.01,,
CG31871,DRSC02571,0.19,0.24,,
CR11235,DRSC20480,0.47,0.45,,
spz3,DRSC02391,0.53,0.19,,
spz3,DRSC03008,0.27,-0.06,,
CG33469,DRSC22900,-0.25,-0.29,,
Tet,DRSC08006,0.5,0.47,,
Tet,DRSC08550,-0.15,0.13,,
Tet,DRSC08646,-0.14,0.06,,
tyf,DRSC18382,0.38,0.7,,
CG31391,DRSC16047,0.2,-1.22,,
CG42342,DRSC13165,0.4,0.53,,
CG42342,DRSC14378,-1.45,-0.23,,
CG42342,DRSC15010,-0.12,0.45,,
CG42342,DRSC15011,-0.11,0.4,,
CG42342,DRSC15012,-0.07,0.29,,
CG42342,DRSC21791,-0.28,-0.31,,
CG42342,DRSC22861,-0.74,0.14,,
Ctu2,DRSC02024,0.24,0.21,,
CG43102,DRSC13261,0.42,0.42,,
CG43102,DRSC14797,0.51,0.49,-0.01,0.25
CG43102,DRSC16239,0.57,0.42,,
CG5727,DRSC02882,0.01,0.21,,
cos,DRSC07598,0.43,0.11,,
CG42789,DRSC13793,0.66,0.52,,

Next part; the last 7 above are carried over.
target,DRSC id,"z-score, replicate 1","z-score, replicate 2","z-score, replicate 3","z-score, replicate 4"
Ctu2,DRSC02024,0.24,0.21,,
CG43102,DRSC13261,0.42,0.42,,
CG43102,DRSC14797,0.51,0.49,-0.01,0.25
CG43102,DRSC16239,0.57,0.42,,
CG5727,DRSC02882,0.01,0.21,,
cos,DRSC07598,0.43,0.11,,
CG42789,DRSC13793,0.66,0.52,,
CG10365,DRSC14234,0.35,0.31,,
Vps45,DRSC16398,0.2,0.57,,
sel,DRSC06232,0.08,0.34,0.34,0.29
CG12438,DRSC02167,0.5,0.44,,
CG14891,DRSC15013,0.33,0.33,,
Impbeta11 + asRNA:CR43429,DRSC07525,0.35,0.07,,
pr,DRSC03596,-0.05,-0.01,,
COX1 (retired record),DRSC21275,0.35,0.1,,
CG13084,DRSC02188,-0.01,0.28,,
Mcm5,DRSC16735,0.15,0.12,,
Atet,DRSC00263,0.6,0.29,,
CG2493,DRSC02707,-0.08,0,,
CG6574,DRSC16070,0.11,0.33,,
Prosbeta4,DRSC02603,-6.3,-6.06,,
TppII,DRSC07565,0.16,0.14,,
CG31661,DRSC00296,0.41,0.38,,
CG12848,DRSC04128,0.38,0.27,,
Ucp4C,DRSC03132,0.17,0.24,,
CG17440,DRSC18126,0.54,0.81,,
VhaPPA1-1,DRSC16170,-1.03,-1.37,,
Ns1,DRSC15529,-0.58,-2.49,,
lbe,DRSC16985,0.19,0.3,,
SpdS,DRSC16408,0.41,0.59,,
Atf-2 + veg (retired record),DRSC04130,0.05,-0.13,,
Atf-2 + veg (retired record),DRSC04413,0.46,0.42,,
